Results deposited as PubChem BioAssay AID1159584 (Peter MacCallum Cancer Centre, 2016)

Screen: 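Genes that CDH1-null MCF10A cells selectively depend on to survive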 (primary screen)
Cells: human MCF10A breast epithelial cells, parental and CDH1-null
Knock-down reagent: siRNA against human genes
Measured: 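ATP luminescence (CellTiter-Glo) viability per line relative to mean mock wells over all plates, and the ratio of CDH1-null to parental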
Scale: CDH1-null / parental viability ratio: higher = CDH1-null cells survive relatively better than parental
Shown is a random part of about 18,000 reagents tested. Not all columns of the deposit are shown. Not given: the amount of reagent, the time to read-out.

CDH1-null / parental viability ratio | gene
0.96 | RNF25
1.09 | NUP155
0.82 | ELOB
0.89 | E2F5
0.73 | CDKL2
0.88 | PPIB
1.19 | SIRPG
0.82 | NEK3
1.02 | SOAT1

As entered above.
For “CDH1-null / parental viability ratio”, CDKL2 is entered as 0.73
For “CDH1-null / parental viability ratio”, SOAT1 has 1.02
Result of NEK3 under “CDH1-null / parental viability ratio”: 0.82

Next records follow:
CDH1-null / parental viability ratio | gene
0.89 | MSR1
0.78 | NXPE4
1.3 | VDAC2
1.05 | MMEL1
1.06 | MIER1
1.12 | SLC6A9
1.35 | PTPN9
1.12 | WDR47
1.19 | CENPC
0.91 | CDC42BPG
1.05 | TAFAZZIN
1.31 | OR52H1
0.81 | CTNNA2
0.99 | KHNYN
1 | OR1E1
0.93 | SOHLH1
1.22 | NEUROG2
0.79 | PABPN1
0.89 | AUNIP
